The nature of data set [1]: general procedure: Fmoc solid-phase peptide synthesis; Tentagel S AC. The note with it: whole synthesis.
Data set [2] in a line: Fmoc solid-phase peptide synthesis; Tentagel S AC. As to conditions: whole synthesis, scale of the general procedure 25-50 μmol; run 1.

In data set [1] (scale 25 μmol), “CF-Pro-Leu-Ala-Glu-Cys(5-O-adenosine-diphosphate-α-D-ribosyl)-Lys-Gly-Ser-Leu-OH” returned an isolated mass of 1.85 mg and an isolated yield of 4.0%.

In data set [1] (scale 25 μmol), “CF-Arg-Pro-Thr-Pro-Cys(5-O-adenosine-diphosphate-α-D-ribosyl)-Ala-Pro-Leu-Ala-OH” yielded an isolated mass of 3.86 mg and an isolated yield of 8.3%.

In data set [1] (scale 50 μmol), “CF-Arg-Pro-Thr-Pro-Cys-Ala-Pro-Leu-Ala-Glu-Cys(5-O-adenosine-diphosphate-α-D-ribosyl)-Lys-Gly-Ser-Leu-OH” registered an isolated mass of 2.4 mg and an isolated yield of 2.0%.

In the case of CF-RPTPC(ADPr)APLAEC(ADPr)KGSL-OH, the isolated yield in data set [2] is recorded as 4.4%; in data set [1] (scale of the general procedure 25-50 μmol, run 2), 4.5%. In addition, in data set [1], the isolated mass is 6.72 mg. Further, the outcome in data set [1] (scale of the general procedure 25-50 μmol) is “Target peptide 1 bearing two ADP-ribosyl-Cys residues, however, could not be prepared in this way”.

As to “CF-Arg-Pro-Thr-Pro-Cys(5-O-adenosine-diphosphate-α-D-ribosyl)-Ala-Pro-Leu-Ala-Glu-Cys-Lys-Gly-Ser-Leu-OH”, in data set [1] (scale 50 μmol), the isolated mass is recorded as 2.8 mg and the isolated yield is reported as 2.3%.

The values above are taken from PMC10660311 (ACS Chemical Biology, 2023).
